Results as given in the supplement of paper PMC10849652.
This is one part of the list.

Chains of the proteins cited; added tags and fusions are not shown. Lines headed by an entry give the natural chain unless they say otherwise; changes in a name come on top.
UniProt Q96Q11: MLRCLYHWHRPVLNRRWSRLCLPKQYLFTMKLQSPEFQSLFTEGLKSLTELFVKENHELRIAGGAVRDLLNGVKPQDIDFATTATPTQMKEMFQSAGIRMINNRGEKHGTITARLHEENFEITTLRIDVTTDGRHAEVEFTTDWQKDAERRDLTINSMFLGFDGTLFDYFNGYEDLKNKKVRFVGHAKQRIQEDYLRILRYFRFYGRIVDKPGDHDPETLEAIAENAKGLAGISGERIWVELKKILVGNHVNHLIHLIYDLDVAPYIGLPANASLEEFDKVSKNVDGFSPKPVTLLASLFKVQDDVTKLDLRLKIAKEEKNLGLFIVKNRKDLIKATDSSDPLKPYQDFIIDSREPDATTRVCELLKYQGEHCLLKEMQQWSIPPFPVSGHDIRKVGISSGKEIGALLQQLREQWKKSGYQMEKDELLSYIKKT
UniProt Q86SZ2: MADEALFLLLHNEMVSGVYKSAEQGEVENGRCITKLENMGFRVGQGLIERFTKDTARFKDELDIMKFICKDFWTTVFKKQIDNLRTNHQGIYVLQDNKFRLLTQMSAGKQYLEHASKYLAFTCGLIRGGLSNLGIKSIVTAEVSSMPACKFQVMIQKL
UniProt Q14258, whole entry, looked up: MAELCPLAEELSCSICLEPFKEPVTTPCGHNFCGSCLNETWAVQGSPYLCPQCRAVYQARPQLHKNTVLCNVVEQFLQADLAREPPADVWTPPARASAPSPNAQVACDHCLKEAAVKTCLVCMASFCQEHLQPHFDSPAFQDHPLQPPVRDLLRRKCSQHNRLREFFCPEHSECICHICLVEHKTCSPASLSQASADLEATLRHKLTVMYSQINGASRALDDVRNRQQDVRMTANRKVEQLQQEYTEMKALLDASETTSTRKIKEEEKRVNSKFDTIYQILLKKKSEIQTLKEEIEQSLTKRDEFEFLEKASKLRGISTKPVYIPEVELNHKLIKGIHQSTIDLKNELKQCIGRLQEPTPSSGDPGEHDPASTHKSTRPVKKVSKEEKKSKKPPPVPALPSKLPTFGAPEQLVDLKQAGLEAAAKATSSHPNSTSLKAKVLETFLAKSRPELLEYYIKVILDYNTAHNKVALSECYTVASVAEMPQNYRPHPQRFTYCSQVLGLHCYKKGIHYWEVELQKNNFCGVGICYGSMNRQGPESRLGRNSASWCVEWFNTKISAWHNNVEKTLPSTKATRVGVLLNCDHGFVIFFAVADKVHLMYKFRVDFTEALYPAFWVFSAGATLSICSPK
UniProt Q16890: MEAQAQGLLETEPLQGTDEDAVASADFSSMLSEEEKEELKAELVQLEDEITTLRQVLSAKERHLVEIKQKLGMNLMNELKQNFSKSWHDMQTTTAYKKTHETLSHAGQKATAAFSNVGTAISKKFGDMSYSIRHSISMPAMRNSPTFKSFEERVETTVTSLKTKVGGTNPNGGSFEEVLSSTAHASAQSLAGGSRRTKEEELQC
UniProt A5PLN9: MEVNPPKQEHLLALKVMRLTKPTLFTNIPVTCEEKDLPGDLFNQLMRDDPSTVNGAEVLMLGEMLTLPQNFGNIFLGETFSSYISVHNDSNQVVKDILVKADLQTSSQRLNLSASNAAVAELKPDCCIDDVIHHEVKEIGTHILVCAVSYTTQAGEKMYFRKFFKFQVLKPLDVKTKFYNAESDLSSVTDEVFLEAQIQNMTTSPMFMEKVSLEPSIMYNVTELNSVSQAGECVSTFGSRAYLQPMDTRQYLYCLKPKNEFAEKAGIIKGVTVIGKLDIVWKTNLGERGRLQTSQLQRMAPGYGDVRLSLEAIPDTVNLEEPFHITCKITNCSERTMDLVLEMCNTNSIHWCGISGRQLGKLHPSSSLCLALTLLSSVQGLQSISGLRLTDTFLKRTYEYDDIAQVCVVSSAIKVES
UniProt Q9NXH9: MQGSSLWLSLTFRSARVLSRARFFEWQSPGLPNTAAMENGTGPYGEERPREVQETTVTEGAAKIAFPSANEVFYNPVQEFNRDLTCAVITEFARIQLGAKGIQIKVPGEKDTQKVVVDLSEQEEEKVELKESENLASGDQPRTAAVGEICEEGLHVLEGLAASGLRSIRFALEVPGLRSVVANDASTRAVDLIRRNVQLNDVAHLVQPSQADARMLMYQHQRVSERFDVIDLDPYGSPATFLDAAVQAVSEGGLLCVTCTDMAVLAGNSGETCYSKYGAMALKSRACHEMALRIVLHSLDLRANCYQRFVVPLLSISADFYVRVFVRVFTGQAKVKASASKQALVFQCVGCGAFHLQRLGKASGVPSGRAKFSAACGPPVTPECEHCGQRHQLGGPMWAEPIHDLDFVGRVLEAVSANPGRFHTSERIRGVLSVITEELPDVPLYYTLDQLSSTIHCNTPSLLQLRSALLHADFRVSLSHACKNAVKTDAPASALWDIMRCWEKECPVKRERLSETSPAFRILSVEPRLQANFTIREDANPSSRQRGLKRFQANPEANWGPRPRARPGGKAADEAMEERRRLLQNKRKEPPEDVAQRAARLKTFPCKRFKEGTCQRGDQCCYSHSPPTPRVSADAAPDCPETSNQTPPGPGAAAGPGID
UniProt Q7Z2T5: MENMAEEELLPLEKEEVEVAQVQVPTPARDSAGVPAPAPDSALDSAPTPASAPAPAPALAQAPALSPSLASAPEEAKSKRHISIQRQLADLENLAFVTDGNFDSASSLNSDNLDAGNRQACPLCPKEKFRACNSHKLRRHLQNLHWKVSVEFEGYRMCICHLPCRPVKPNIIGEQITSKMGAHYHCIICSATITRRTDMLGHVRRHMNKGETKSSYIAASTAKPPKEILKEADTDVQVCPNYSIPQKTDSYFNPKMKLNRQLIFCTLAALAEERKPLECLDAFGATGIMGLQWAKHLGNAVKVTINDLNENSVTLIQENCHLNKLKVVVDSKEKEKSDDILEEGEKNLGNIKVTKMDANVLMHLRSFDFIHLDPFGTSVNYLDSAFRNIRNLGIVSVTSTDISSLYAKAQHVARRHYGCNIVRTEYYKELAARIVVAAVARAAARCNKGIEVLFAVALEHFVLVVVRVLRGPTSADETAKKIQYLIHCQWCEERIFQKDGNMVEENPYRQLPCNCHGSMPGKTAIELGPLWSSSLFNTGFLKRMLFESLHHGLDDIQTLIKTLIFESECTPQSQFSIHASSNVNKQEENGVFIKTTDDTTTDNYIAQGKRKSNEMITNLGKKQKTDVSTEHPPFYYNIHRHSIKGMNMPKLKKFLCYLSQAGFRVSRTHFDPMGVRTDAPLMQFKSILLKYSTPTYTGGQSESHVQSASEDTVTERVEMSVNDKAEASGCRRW
UniProt Q8IUR0, whole entry, looked up: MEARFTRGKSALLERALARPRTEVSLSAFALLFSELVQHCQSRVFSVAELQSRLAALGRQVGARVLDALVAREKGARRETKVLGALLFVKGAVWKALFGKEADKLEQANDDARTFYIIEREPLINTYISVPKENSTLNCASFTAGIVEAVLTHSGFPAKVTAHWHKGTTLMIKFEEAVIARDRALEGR
UniProt O75157: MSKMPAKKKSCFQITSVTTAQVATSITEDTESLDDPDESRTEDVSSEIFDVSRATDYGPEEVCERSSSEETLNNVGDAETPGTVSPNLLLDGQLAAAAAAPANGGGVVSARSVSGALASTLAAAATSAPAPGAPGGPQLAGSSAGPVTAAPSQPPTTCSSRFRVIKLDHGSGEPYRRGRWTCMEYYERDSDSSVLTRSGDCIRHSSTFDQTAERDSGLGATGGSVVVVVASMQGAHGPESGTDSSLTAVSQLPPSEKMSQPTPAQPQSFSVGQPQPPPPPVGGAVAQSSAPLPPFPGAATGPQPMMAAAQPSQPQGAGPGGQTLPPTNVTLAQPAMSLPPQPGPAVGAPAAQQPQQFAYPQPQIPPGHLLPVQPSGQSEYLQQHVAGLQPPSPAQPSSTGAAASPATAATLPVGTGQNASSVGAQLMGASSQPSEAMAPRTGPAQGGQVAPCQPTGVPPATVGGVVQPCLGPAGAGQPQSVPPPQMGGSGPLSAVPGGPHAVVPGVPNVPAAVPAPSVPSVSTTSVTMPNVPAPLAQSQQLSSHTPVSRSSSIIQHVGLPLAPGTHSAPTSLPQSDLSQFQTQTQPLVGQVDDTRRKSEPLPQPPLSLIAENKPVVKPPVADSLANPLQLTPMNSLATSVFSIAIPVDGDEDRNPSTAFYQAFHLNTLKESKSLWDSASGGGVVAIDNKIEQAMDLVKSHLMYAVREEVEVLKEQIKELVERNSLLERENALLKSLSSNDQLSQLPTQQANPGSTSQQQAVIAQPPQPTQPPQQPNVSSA
UniProt Q9Y296, whole entry, looked up: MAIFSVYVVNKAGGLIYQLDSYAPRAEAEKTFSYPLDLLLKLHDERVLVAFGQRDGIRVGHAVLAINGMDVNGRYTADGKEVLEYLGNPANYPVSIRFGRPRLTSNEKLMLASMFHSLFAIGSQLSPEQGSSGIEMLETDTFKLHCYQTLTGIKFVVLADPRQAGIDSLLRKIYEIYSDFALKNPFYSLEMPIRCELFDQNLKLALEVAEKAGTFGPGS
UniProt Q9BSV6: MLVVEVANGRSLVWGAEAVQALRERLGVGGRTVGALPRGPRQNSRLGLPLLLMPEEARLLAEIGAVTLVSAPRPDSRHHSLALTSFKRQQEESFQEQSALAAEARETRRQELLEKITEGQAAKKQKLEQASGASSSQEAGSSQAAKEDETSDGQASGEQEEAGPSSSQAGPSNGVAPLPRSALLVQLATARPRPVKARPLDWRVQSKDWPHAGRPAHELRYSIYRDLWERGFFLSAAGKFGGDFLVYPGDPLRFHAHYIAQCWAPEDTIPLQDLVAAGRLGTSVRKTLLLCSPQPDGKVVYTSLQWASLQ
UniProt Q9BQ61: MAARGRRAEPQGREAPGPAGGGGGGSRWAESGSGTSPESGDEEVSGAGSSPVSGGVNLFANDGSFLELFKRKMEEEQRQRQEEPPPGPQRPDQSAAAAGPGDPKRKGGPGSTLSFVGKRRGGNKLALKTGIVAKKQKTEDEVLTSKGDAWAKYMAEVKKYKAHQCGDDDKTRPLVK
UniProt Q8WW01: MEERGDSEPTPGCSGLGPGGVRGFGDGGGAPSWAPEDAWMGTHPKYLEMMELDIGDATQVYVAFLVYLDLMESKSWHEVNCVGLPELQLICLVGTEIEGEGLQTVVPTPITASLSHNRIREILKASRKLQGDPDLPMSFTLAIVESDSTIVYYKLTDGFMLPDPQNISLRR
UniProt Q9NS69: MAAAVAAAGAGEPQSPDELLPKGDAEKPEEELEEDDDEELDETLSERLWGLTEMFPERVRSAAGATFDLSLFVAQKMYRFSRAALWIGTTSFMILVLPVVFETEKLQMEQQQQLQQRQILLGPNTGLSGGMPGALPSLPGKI
UniProt P09493, whole entry, looked up: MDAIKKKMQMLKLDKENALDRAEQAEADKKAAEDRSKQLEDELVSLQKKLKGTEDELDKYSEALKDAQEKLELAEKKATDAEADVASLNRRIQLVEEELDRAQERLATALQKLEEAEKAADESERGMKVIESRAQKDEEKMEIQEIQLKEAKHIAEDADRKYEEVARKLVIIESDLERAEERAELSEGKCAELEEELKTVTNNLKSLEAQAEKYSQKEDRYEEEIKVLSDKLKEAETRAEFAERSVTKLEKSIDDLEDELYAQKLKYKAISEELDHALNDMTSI
UniProt O14545: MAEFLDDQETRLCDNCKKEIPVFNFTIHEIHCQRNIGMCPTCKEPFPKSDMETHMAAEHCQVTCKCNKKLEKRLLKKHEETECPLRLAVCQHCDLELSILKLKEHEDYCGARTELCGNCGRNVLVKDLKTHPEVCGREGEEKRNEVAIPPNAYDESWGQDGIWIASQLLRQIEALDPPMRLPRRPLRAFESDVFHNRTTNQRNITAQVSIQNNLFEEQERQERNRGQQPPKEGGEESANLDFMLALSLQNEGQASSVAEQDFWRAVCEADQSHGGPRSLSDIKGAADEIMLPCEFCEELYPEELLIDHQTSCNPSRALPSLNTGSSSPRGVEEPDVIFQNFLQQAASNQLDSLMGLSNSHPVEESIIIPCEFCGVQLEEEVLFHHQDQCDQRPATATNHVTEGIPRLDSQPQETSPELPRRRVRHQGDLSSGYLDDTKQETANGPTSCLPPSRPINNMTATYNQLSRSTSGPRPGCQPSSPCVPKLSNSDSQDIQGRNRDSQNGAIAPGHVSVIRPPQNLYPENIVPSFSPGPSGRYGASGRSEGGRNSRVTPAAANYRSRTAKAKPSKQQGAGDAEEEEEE
UniProt O75674: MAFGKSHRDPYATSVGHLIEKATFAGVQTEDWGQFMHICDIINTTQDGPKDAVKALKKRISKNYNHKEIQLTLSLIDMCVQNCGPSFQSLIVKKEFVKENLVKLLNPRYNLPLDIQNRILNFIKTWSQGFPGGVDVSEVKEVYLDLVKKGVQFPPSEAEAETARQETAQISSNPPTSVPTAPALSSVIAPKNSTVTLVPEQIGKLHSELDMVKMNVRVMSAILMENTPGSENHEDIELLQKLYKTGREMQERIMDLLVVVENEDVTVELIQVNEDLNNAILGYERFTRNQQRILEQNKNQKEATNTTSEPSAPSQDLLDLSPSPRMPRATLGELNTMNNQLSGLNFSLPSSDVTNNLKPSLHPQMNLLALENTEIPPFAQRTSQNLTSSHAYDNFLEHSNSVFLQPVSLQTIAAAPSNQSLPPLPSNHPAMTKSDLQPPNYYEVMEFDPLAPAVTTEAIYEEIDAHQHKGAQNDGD

Key:
Assay in all cases: log2 fold change, soluble protein after heating vs DMSO (PISA); higher = thermal stabilisation; K562 cells, 10 uM, 30 min; active = over 0.2 and 3.5 SD of the protein, either way, in both replicates (recomputed)
[1] = compound: CC1=C(C=C(C=C1)NC(=O)C2=CC(=CC=C2)C(C)(C)C#N)NC3=CC4=C(C=C3)N=CN(C4=O)C
How it was run: (§1)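 For each measurement, 10 μM compound was applied for 30 min to K562 cells at 2×10^6 cells/mL. Aliquots were heated for 3 min across 48°C-58°C, pooled, and extracted in PBS with 0.5% NP-40 at 4°C; the supernatant after 21,000xg for 90 min was soluble protein. This was quantified by TMTpro 16plex LC-MS/MS with channel sums equalised, and thermal stability was reported relative to control samples from duplicates, on a log2 fold-change scale.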

[2] = compound: CC1=C(C=C(C=C1)NC(=O)C2=CC(=CC=C2)N(C)C)NC(=O)C3=CC=C(C=C3)O
How it was run: as §1

[3] = compound: CC1=CC=C(C=C1)SC2=C3C=C(SC3=CN=C2)C(=O)N
How it was run: as §1

[4] = compound: CC1=NC(=CC=C1)C2=C(N=C(N2)C(C)(C)C)C3=CC4=NC=CN=C4C=C3
How it was run: as §1

Nexturastat A = compound: CCCCN(Cc1ccc(C(=O)NO)cc1)C(=O)Nc1ccccc1 [Nexturastat A]
How it was run: as §1

vemurafenib = compound: CCCS(=O)(=O)Nc1ccc(F)c(C(=O)c2c[nH]c3ncc(-c4ccc(Cl)cc4)cc23)c1F [vemurafenib]
How it was run: as §1

[5] = compound: CCCS(=O)(=O)Nc1ccc(F)c(C(=O)c2c[nH]c3ncc(Cl)cc23)c1F
How it was run: as §1

[6] = compound: CCCc1cc(C)[nH]c(=O)c1CNC(=O)c1cc(-c2ccnc(N3CCN(C)CC3)c2)cc2c1cnn2C(C)C
How it was run: as §1

givinostat = compound: CCN(CC)Cc1ccc2cc(COC(=O)Nc3ccc(C(=O)NO)cc3)ccc2c1 [givinostat]
How it was run: as §1

barasertib = compound: CCN(CCCOc1ccc2c(Nc3cc(CC(=O)Nc4cccc(F)c4)[nH]n3)ncnc2c1)CCOP(=O)(O)O [barasertib]
How it was run: as §1

Measured: log2 fold change

TRNT1 (UniProt Q96Q11)
inactive: [1] -0.056 | [2] -0.003 | [3] -0.007 | [4] 0.027 | Nexturastat A -0.016 | vemurafenib 0.04 | [5] 0.061 | [6] 0.03 | givinostat 0.022 | barasertib 0.019

TRAPPC6B (UniProt Q86SZ2)
inactive: [1] 0.022 | [2] -0.01 | [3] 0.049 | [4] 0.07 | Nexturastat A -0.097 | vemurafenib 0.009 | [5] 0.02 | [6] -0.063 | givinostat -0.02 | barasertib 0.008

TRIM25 (UniProt Q14258)
inactive: [1] 0.049 | [2] -0.005 | [3] -0.014 | [4] -0.025 | Nexturastat A 0.253 | vemurafenib 0.037 | [5] 0.04 | [6] 0.13 | givinostat 0.08 | barasertib -0.033

TPD52L1 (UniProt Q16890)
inactive: [1] -0.016 | [2] 0.056 | [3] 0.005 | [4] 0.033 | Nexturastat A -0.056 | vemurafenib 0.006 | [5] 0.026 | [6] -0.04 | givinostat -0.009 | barasertib -0.028

TOM1 isoform 2 (UniProt O60784)
inactive: [1] 0.17 | [2] 0.026 | [3] 0.02 | [4] 0.051 | Nexturastat A -0.028 | vemurafenib 0.17 | [5] 0.041 | [6] 0 | givinostat 0.013 | barasertib -0.01

TNIK isoform 6 (UniProt Q9UKE5)
inactive: [1] 0.004 | [2] 0.025 | [3] -0.034 | [4] -0.017 | Nexturastat A 0.047 | vemurafenib -0.026 | [5] -0.035 | [6] -0.047 | givinostat 0.015 | barasertib -0.011

TOR1AIP2 (UniProt Q8NFQ8)
inactive: [1] 0.002 | [2] 0 | [3] -0.047 | [4] -0.028 | Nexturastat A -0.129 | vemurafenib -0.018 | [5] -0.027 | [6] -0.018 | givinostat -0.032 | barasertib -0.009

TRUB1 (UniProt Q8WWH5)
inactive: [1] -0.013 | [2] 0.003 | [3] -0.009 | [4] 0.049 | Nexturastat A -0.025 | vemurafenib 0.08 | [5] 0.025 | [6] -0.067 | givinostat -0.006 | barasertib -0.006

TRAPPC13 isoform 5 (UniProt A5PLN9)
inactive: [1] 0.022 | [2] 0.008 | [3] 0.006 | [4] 0.043 | Nexturastat A 0.024 | vemurafenib 0.074 | [5] 0.113 | [6] 0.095 | givinostat 0.025 | barasertib 0.002

TRMT1 (UniProt Q9NXH9)
inactive: [1] 0.003 | [2] 0.001 | [3] -0.001 | [4] 0.017 | Nexturastat A -0.083 | vemurafenib -0.007 | [5] 0.023 | [6] -0.04 | givinostat 0.01 | barasertib 0.003

TRMT13 (UniProt Q9NUP7)
inactive: [1] 0 | [2] 0.007 | [3] -0.049 | [4] -0.004 | Nexturastat A -0.016 | vemurafenib 0.076 | [5] 0.002 | [6] -0.009 | givinostat -0.002 | barasertib -0.02

TRIM32 (UniProt Q13049)
inactive: [1] 0.04 | [2] 0.239 | [3] -0.016 | [4] 0.003 | Nexturastat A -0.013 | vemurafenib 0.106 | [5] -0.059 | [6] -0.282 | givinostat -0.003 | barasertib -0.015

TRMT1L (UniProt Q7Z2T5)
inactive: [1] 0.034 | [2] -0.029 | [3] -0.073 | [4] -0.095 | Nexturastat A 0.212 | vemurafenib -0.207 | [5] -0.001 | [6] 0.123 | givinostat -0.008 | barasertib -0.108

TRAPPC5 (UniProt Q8IUR0)
inactive: [1] -0.01 | [2] -0.037 | [3] 0.047 | [4] -0.007 | Nexturastat A -0.113 | vemurafenib 0.04 | [5] 0.082 | [6] 0.001 | givinostat 0.016 | barasertib 0.077

TRRAP (UniProt Q9Y4A5)
inactive: [1] 0 | [2] 0.029 | [3] -0.01 | [4] -0.006 | Nexturastat A -0.028 | vemurafenib -0.021 | [5] 0.002 | [6] -0.024 | givinostat -0.014 | barasertib -0.005

TOMM70 (UniProt O94826)
inactive: [1] 0.023 | [2] -0.037 | [3] -0.003 | [4] 0.033 | Nexturastat A -0.031 | vemurafenib 0.029 | [5] 0.056 | [6] -0.006 | givinostat 0.019 | barasertib 0.029

TSC22D2 (UniProt O75157)
inactive: [1] 0.046 | [2] -0.061 | [3] 0.035 | [4] 0.01 | Nexturastat A 0.021 | vemurafenib 0.018 | [5] -0.088 | [6] -0.004 | givinostat 0.012 | barasertib -0.025

TRAF2 (UniProt Q12933)
inactive: [1] 0.024 | [2] -0.008 | [3] 0.036 | [4] 0.009 | Nexturastat A -0.049 | vemurafenib 0.031 | [5] 0.034 | [6] -0.04 | givinostat -0.014 | barasertib 0.007

TRAPPC4 (UniProt Q9Y296)
inactive: [1] 0.001 | [2] 0.013 | [3] -0.029 | [4] -0.004 | Nexturastat A -0.06 | vemurafenib -0.003 | [5] -0.033 | [6] -0.01 | givinostat -0.027 | barasertib 0.017

TSEN34 (UniProt Q9BSV6)
inactive: [1] 0.013 | [2] 0.027 | [3] -0.015 | [4] 0.087 | Nexturastat A -0.006 | vemurafenib -0.026 | [5] 0.028 | [6] -0.054 | givinostat -0.027 | barasertib 0.01

TRIP11 (UniProt Q15643)
inactive: [1] 0.006 | [2] 0.038 | [3] 0.09 | [4] -0.025 | Nexturastat A -0.012 | vemurafenib 0.026 | [5] 0.072 | [6] 0.113 | givinostat 0.018 | barasertib 0.044

TRIR (UniProt Q9BQ61)
inactive: [1] -0.07 | [2] 0.029 | [3] -0.049 | [4] 0.034 | Nexturastat A 0.016 | vemurafenib -0.047 | [5] -0.113 | [6] -0.097 | givinostat 0.012 | barasertib -0.018

TSEN15 (UniProt Q8WW01)
inactive: [1] 0.08 | [2] -0.008 | [3] 0.018 | [4] 0.102 | Nexturastat A 0.069 | vemurafenib -0.06 | [5] 0.047 | [6] -0.033 | givinostat -0.025 | barasertib 0.03

2 entries drawn at random from the list so far:
TSEN34 (UniProt Q9BSV6)
inactive: [1] 0.013 | [2] 0.027 | [3] -0.015 | [4] 0.087 | Nexturastat A -0.006 | vemurafenib -0.026 | [5] 0.028 | [6] -0.054 | givinostat -0.027 | barasertib 0.01

TRIP11 (UniProt Q15643)
inactive: [1] 0.006 | [2] 0.038 | [3] 0.09 | [4] -0.025 | Nexturastat A -0.012 | vemurafenib 0.026 | [5] 0.072 | [6] 0.113 | givinostat 0.018 | barasertib 0.044

Additional results

TOMM22 (UniProt Q9NS69)
inactive: [1] -0.087 | [2] -0.082 | [3] 0.054 | [4] 0.016 | Nexturastat A -0.021 | vemurafenib 0.048 | [5] -0.006 | [6] 0.007 | givinostat -0.008 | barasertib 0.109

TPM1 isoform 4 (UniProt P09493)
inactive: [1] 0.035 | [2] -0.013 | [3] -0.001 | [4] 0.058 | Nexturastat A -0.076 | vemurafenib -0.017 | [5] -0.004 | [6] 0.241 | givinostat -0.032 | barasertib 0.014

TRAFD1 (UniProt O14545)
inactive: [1] 0.03 | [2] 0.037 | [3] 0.034 | [4] 0.01 | Nexturastat A 0.012 | vemurafenib 0.014 | [5] 0.017 | [6] 0.023 | givinostat -0.058 | barasertib -0.028

TOM1L1 (UniProt O75674)
inactive: [1] -0.101 | [2] 0.005 | [3] 0.057 | [4] 0.019 | Nexturastat A -0.038 | vemurafenib 0.102 | [5] 0.015 | [6] -0.07 | givinostat 0.024 | barasertib 0.03

TP53I3 (UniProt Q53FA7)
inactive: [1] -0.033 | [2] 0.019 | [3] -0.017 | [4] -0.072 | Nexturastat A 0.121 | vemurafenib -0.013 | [5] -0.026 | [6] -0.102 | givinostat 0.007 | barasertib -0.035

TRIM4 (UniProt Q9C037)
inactive: [1] -0.031 | [2] 0.023 | [3] -0.029 | [4] -0.076 | Nexturastat A 0.1 | vemurafenib -0.297 | [5] -0.041 | [6] 0.046 | givinostat -0.086 | barasertib 0.011
